PubChem BioAssay AID504764 – Drosophila RNAi Screening Center, 2011
Aim: 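Genes whose knock-down alters Notch-dependent transcription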 (primary screen). Cells: Drosophila Kc167 cells. Knock-down reagent: long dsRNA against Drosophila genes. Duration: about 5 days (4 days dsRNA, then 24 h after transfection). Conditions: transfection of constitutively active membrane-tethered Notch lacking the extracellular domain, read 24 h later. Measurement: 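Light from a Notch-responsive E(spl)m3 luciferase reporter under active Notch, with control-promoter and no-Notch reporter wells to normalise; raw counts from paired wells a and b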. Scale: induced reporter light, run 1, well a and induced reporter light, run 1, well b: higher = more light from the Notch target reporter with active Notch; control promoter light, run 1, well a and control promoter light, run 1, well b: higher = more light from the viral control promoter (cell number, transfection, viability); uninduced reporter light, run 1, well a: higher = more light from the Notch target reporter without active Notch. Call rule: 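Hit if the duplicate-averaged log2 ratio of induced to control-promoter light gives a plate-wise z beyond ±2, or induced to uninduced beyond ±1.8; weak-control or discordant-duplicate wells dropped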. Calls: active = modifier hit (raised or lowered Notch signal); inactive = not a hit.
In all, the deposit lists about 22,000 reagents; shown is an unselected part of those that have a named target and a result. In the full data, 403 (1.9%) were called active. 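Unnormalised raw counts per well; ratio z-scores behind the hit calls and whether each hit raises or lowers signal are not deposited.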 A plus sign joins genes that one reagent is predicted to hit. Not stated in the record: the amount of reagent.

predicted target,DRSC id,"induced reporter light, run 1, well a","induced reporter light, run 1, well b","control promoter light, run 1, well a","control promoter light, run 1, well b","uninduced reporter light, run 1, well a",Outcome
Dic4,DRSC10317,95410,97370,1.37e5,1.06e5,4550,inactive
ZC3H3,DRSC10696,33340,35975,42435,39545,2505,inactive
CG9406,DRSC04552,20195,42785,56090,52415,3342,inactive
blo,DRSC05937,56555,65350,39140,34255,4895,active
Ppox,DRSC17033,1.66e5,1.58e5,2.05e5,1.93e5,12230,inactive
Ser8,DRSC06891,89320,96655,86920,81555,9905,active
CG34269,DRSC07884,1.91e5,2.19e5,2.28e5,2.35e5,16315,inactive
knon,DRSC07049,1.55e5,1.19e5,1.39e5,1.48e5,12915,inactive
CG16854,DRSC02536,93160,1.55e5,72080,84795,14305,inactive
ImpE1,DRSC11195,2.05e5,1.92e5,2.19e5,1.89e5,9120,inactive
ImpE1,DRSC11196,1.78e5,2.02e5,1.77e5,1.84e5,8125,inactive
CG17118,DRSC02579,1.25e5,1.29e5,76185,96635,20430,inactive
CG13539,DRSC04181,1.55e5,1.80e5,1.85e5,1.92e5,15465,inactive
CG15322,DRSC20680,7450,7965,7095,6030,3675,inactive
sing,DRSC19530,71305,68675,98565,97925,11125,inactive
Ipp,DRSC16718,2.51e5,2.32e5,2.27e5,2.22e5,17400,inactive
CG32642,DRSC18959,64145,74675,82855,64170,5665,inactive
CG1631,DRSC20535,78585,68165,97680,1.03e5,9715,inactive
heph,DRSC14082,34685,85765,99035,1.19e5,6438,inactive
heph,DRSC14085,46115,74555,1.14e5,1.19e5,6015,active
heph,DRSC15436,66700,63965,97735,1.26e5,4760,inactive
heph,DRSC16783,76985,80880,1.14e5,1.59e5,7120,inactive
CG4576,DRSC15604,2.18e5,1.93e5,2.55e5,2.77e5,15540,active
sowi,DRSC12558,65010,79320,81355,74480,6425,inactive
mRpL35,DRSC14586,1.78e5,1.68e5,2.10e5,2.01e5,12930,inactive
CG34171,DRSC01637,80375,98730,89190,77315,7380,inactive
CG3769,DRSC02723,1.28e5,1.43e5,74815,92840,16425,inactive
CG10000,DRSC14170,1.68e5,1.57e5,1.92e5,1.78e5,12945,inactive
CG12310,DRSC09878,1.82e5,1.95e5,2.38e5,2.69e5,8205,inactive
CG12857,DRSC06197,93785,98385,1.33e5,1.12e5,8525,inactive
CG5783,DRSC02894,1.71e5,1.64e5,1.57e5,1.79e5,11740,inactive
CG31272,DRSC16058,30370,22550,29785,27775,1505,inactive
Osi10b,DRSC12279,1.04e5,1.03e5,78740,71070,6685,inactive
Ald2,DRSC15799,1.56e5,1.55e5,1.94e5,2.12e5,13505,inactive
mRpL19,DRSC16367,65455,54935,58750,55875,4870,inactive
mtrm,DRSC10322,10365,9992,10470,3038,3250,inactive
Dhc62B,DRSC08655,1.60e5,1.23e5,1.72e5,1.36e5,6760,inactive
Arp5,DRSC16350,1.84e5,1.69e5,2.24e5,2.31e5,15115,inactive
Dnaaf4,DRSC02405,1.49e5,1.51e5,77320,95645,18360,inactive
soti,DRSC16432,1.69e5,1.70e5,1.12e5,1.12e5,11012,inactive
COX8,DRSC11814,1.67e5,1.08e5,1.08e5,1.32e5,9100,inactive
CG3106,DRSC18279,1.41e5,1.23e5,1.53e5,1.59e5,8950,inactive
RpS18,DRSC07540,12870,8700,11735,13670,1885,inactive
Cyp301a1,DRSC07365,1.28e5,1.02e5,1.35e5,1.28e5,8810,inactive
Itpr,DRSC12354,61920,67760,63160,52895,5035,inactive
Sgt,DRSC02812,1.06e5,1.06e5,1.01e5,94395,8400,inactive
CG10953,DRSC06021,1.25e5,1.04e5,1.85e5,1.79e5,10715,inactive
CG7202,DRSC11818,1.26e5,1.11e5,1.30e5,1.02e5,4780,inactive
CG6244,DRSC10609,1.09e5,1.54e5,1.30e5,1.24e5,7640,inactive
Dus2,DRSC19591,2.36e5,1.82e5,2.79e5,3.03e5,13280,inactive
senju,DRSC02366,2.04e5,1.62e5,1.93e5,1.80e5,12105,inactive
CG34268,DRSC07874,2.43e5,2.04e5,1.74e5,1.86e5,20135,inactive
Sin1,DRSC05965,1.41e5,1.30e5,1.20e5,1.39e5,9995,inactive
CG31793,DRSC02605,41725,30620,75690,36755,3640,inactive
CG42827 + CG42828,DRSC16116,1.53e5,1.42e5,1.83e5,1.78e5,11340,inactive
CG13070,DRSC09953,1.90e5,2.20e5,2.76e5,2.53e5,8760,inactive
L (retired record),DRSC05966,64180,53150,69345,65265,9025,active
L (retired record),DRSC05967,43060,42935,43340,35045,5370,inactive
Tbc1d15-17,DRSC00313,1.57e5,1.84e5,2.41e5,2.61e5,17038,inactive
Cyp12a4,DRSC16620,1.96e5,1.72e5,1.68e5,1.71e5,14790,inactive
CG3793,DRSC01982,2.36e5,2.51e5,1.87e5,1.82e5,14905,inactive
sds22,DRSC17052,2.06e5,1.96e5,1.89e5,2.15e5,20265,inactive
Enoph,DRSC12201,53055,61080,62190,59705,2900,inactive
CG7058,DRSC20021,64045,87550,60975,96620,9760,inactive

10 successive reagents from above:
predicted target,DRSC id,"induced reporter light, run 1, well a","induced reporter light, run 1, well b","control promoter light, run 1, well a","control promoter light, run 1, well b","uninduced reporter light, run 1, well a",Outcome
Ser8,DRSC06891,89320,96655,86920,81555,9905,active
CG34269,DRSC07884,1.91e5,2.19e5,2.28e5,2.35e5,16315,inactive
knon,DRSC07049,1.55e5,1.19e5,1.39e5,1.48e5,12915,inactive
CG16854,DRSC02536,93160,1.55e5,72080,84795,14305,inactive
ImpE1,DRSC11195,2.05e5,1.92e5,2.19e5,1.89e5,9120,inactive
ImpE1,DRSC11196,1.78e5,2.02e5,1.77e5,1.84e5,8125,inactive
CG17118,DRSC02579,1.25e5,1.29e5,76185,96635,20430,inactive
CG13539,DRSC04181,1.55e5,1.80e5,1.85e5,1.92e5,15465,inactive
CG15322,DRSC20680,7450,7965,7095,6030,3675,inactive
sing,DRSC19530,71305,68675,98565,97925,11125,inactive
